# Results published in the supplement of paper PMC8728848.
# The other results are listed elsewhere or left out.
# B1: PX9937I-bfa-538-26-538 (Bacteroides fragilis) (protein)
# chain: DKLDLSPIDYYGSGSYWKTEAQATAYIDGIHKHLRDAAWQHTITFGELRGGRFITGASSDGMGVSNGDIILQNFDETHTGVSKFGDLFGRITNLNLFIARVTDATYLSDEMKNFYLGEVYGLRAFYYFDLYRIYGGVPLRLTADVVEGVIDPNKLYMARSTPKEVMTQIKSDLNKSMEYFGNMNDFDPYKRGKKVYWSKAATECLMGEVYLWTSKVTTGDDVANPADLTIAKTHLESVLNNYNLKMLDDFSQVFNAKNKANDEIIFAIRFLEGEATNSNGTFTYNVGTGSTKNRYQANGEVFGDALDIQNTGNQTYEYNKAVYQNFDDADTRKEATFIASYNKDGKTGELSLYGTHVRKNIGYVNAQGARVYCGDYIFYRLPWVYLTLAEIANMEGDNAAVAKYINLVRKRAYGNAWDETLYAYPETADFTTNELAILHEKDKEFIQEGQRWWDLRRMTLTKGGTPLVFCKEGSLLGDAPILNKSTEAHKLLWPIEKTMLNKDPALEQTPGYK
# Columns and labels:
# Test in all cases: glycan array binding signal (z-score within array); higher = stronger binding
# Details in all cases: glycan notation: IUPAC condensed, linker removed
# [1] = target: GalNAc(b1-4)GlcNAc(b1-2)Man
# In short: (§1)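 Glycan array binding is given as a within-array Z-score, which can be read as non-binding when negative. The arrays, 3228 of them, came from the Consortium for Functional Glycomics database and were retained only where the protein sequence was available. Z-scores were averaged across arrays of the same protein sequence at different concentrations or buffers and across linkers.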
# [2] = target: GalNAc(b1-4)GlcNAc(b1-2)Man(a1-3)[GalNAc(b1-4)GlcNAc(b1-2)Man(a1-6)]Man(b1-4)GlcNAc(b1-4)GlcNAc
# In short: as §1
# [3] = target: GalNAc(b1-4)GlcNAc(b1-3)GalNAc(b1-4)GlcNAc
# In short: as §1
# [4] = target: GalNAc(b1-4)GlcNAc6S
# In short: as §1
# [5] = target: GalNAc(b1-6)GalNAc
# In short: as §1
# [6] = target: GalNAc3S(b1-4)GlcNAc
# In short: as §1
# [7] = target: GalNAc3S(b1-4)GlcNAc3S
# In short: as §1
# [8] = target: GalNAc3S(b1-4)[Fuc(a1-3)]GlcNAc
# In short: as §1
# [9] = target: GalNAc4S6S(b1-4)GlcNAc
# In short: as §1
# [10] = target: GalNAc6S(b1-4)GlcNAc
# In short: as §1
# [11] = target: Glc(a1-4)Glc
# In short: as §1
# [12] = target: Glc(a1-4)Glc(a1-4)Glc(a1-4)Glc
# In short: as §1
# [13] = target: Glc(a1-6)Glc(a1-6)Glc
# In short: as §1
# [14] = target: Glc(a1-6)Glc(a1-6)Glc(a1-6)Glc
# In short: as §1
# [15] = target: Glc(b1-4)Glc
# In short: as §1
# [16] = target: Glc(b1-6)Glc
# In short: as §1
# [17] = target: GlcA(b1-3)Gal
# In short: as §1
# [18] = target: GlcA(b1-3)GlcNAc
# In short: as §1
# [19] = target: GlcA(b1-6)Gal
# In short: as §1
# [20] = target: GlcA3S(b1-3)Gal(b1-4)GlcNAc(b1-2)Man
# In short: as §1
# [21] = target: GlcA3S(b1-3)Gal(b1-4)GlcNAc(b1-3)Gal(b1-4)Glc
# In short: as §1
# [22] = target: GlcNAc(a1-3)Gal(b1-4)GlcNAc
# In short: as §1
# [23] = target: GlcNAc(a1-4)Gal(b1-3)GlcNAc
# In short: as §1
# [24] = target: GlcNAc(a1-4)Gal(b1-4)GalNAc
# In short: as §1
# [25] = target: GlcNAc(a1-4)Gal(b1-4)GlcNAc
# In short: as §1
# [26] = target: GlcNAc(a1-4)Gal(b1-4)GlcNAc(b1-3)Gal(b1-4)Glc
# In short: as §1
# [27] = target: GlcNAc(a1-4)Gal(b1-4)GlcNAc(b1-3)Gal(b1-4)GlcNAc
# In short: as §1
# [28] = target: GlcNAc(a1-4)Gal(b1-4)GlcNAc(b1-3)Gal(b1-4)GlcNAc(b1-3)Gal(b1-4)GlcNAc
# In short: as §1
# [29] = target: GlcNAc(a1-4)Gal(b1-4)GlcNAc(b1-3)Gal(b1-4)[Fuc(a1-3)]GlcNAc(b1-3)Gal(b1-4)[Fuc(a1-3)]GlcNAc
# In short: as §1
# [30] = target: GlcNAc(a1-6)Gal(b1-4)GlcNAc
# In short: as §1
# [31] = target: GlcNAc(b1-2)Gal(b1-3)GalNAc
# In short: as §1
# [32] = target: GlcNAc(b1-2)Man(a1-3)[GlcNAc(b1-2)Man(a1-6)]Man(b1-4)GlcNAc(b1-4)GlcNAc
# In short: as §1
# [33] = target: GlcNAc(b1-2)Man(a1-3)[GlcNAc(b1-2)Man(a1-6)]Man(b1-4)GlcNAc(b1-4)[Fuc(a1-6)]GlcNAc
# In short: as §1
# [34] = target: GlcNAc(b1-2)Man(a1-3)[GlcNAc(b1-4)][GlcNAc(b1-2)Man(a1-6)]Man(b1-4)GlcNAc(b1-4)GlcNAc
# In short: as §1
# [35] = target: GlcNAc(b1-2)Man(a1-3)[GlcNAc(b1-4)][GlcNAc(b1-2)Man(a1-6)]Man(b1-4)GlcNAc(b1-4)[Fuc(a1-6)]GlcNAc
# In short: as §1
# [36] = target: GlcNAc(b1-2)[GlcNAc(b1-4)]Man(a1-3)[GlcNAc(b1-2)Man(a1-6)]Man(b1-4)GlcNAc(b1-4)GlcNAc
# In short: as §1
# [37] = target: GlcNAc(b1-2)[GlcNAc(b1-4)]Man(a1-3)[GlcNAc(b1-4)][GlcNAc(b1-2)Man(a1-6)]Man(b1-4)GlcNAc(b1-4)GlcNAc
# In short: as §1
binder,measurement,setting,value
B1,glycan array binding signal (z-score),[1],0.041
same,glycan array binding signal (z-score),[2],-0.139
same,glycan array binding signal (z-score),[3],-1.12
same,glycan array binding signal (z-score),[4],0.142
same,glycan array binding signal (z-score),[5],-0.464
same,glycan array binding signal (z-score),[6],-0.271
same,glycan array binding signal (z-score),[7],-1.26
same,glycan array binding signal (z-score),[8],-0.573
same,glycan array binding signal (z-score),[9],-0.708
same,glycan array binding signal (z-score),[10],-0.41
same,glycan array binding signal (z-score),[11],-0.431
same,glycan array binding signal (z-score),[12],-0.521
same,glycan array binding signal (z-score),[13],-0.812
same,glycan array binding signal (z-score),[14],-0.421
same,glycan array binding signal (z-score),[15],-0.101
same,glycan array binding signal (z-score),[16],0.338
same,glycan array binding signal (z-score),[17],-0.8
same,glycan array binding signal (z-score),[18],0.211
same,glycan array binding signal (z-score),[19],-0.593
same,glycan array binding signal (z-score),[20],-0.243
same,glycan array binding signal (z-score),[21],0.018
same,glycan array binding signal (z-score),[22],0.271
same,glycan array binding signal (z-score),[23],-0.566
same,glycan array binding signal (z-score),[24],-0.153
same,glycan array binding signal (z-score),[25],-0.808
same,glycan array binding signal (z-score),[26],-0.307
same,glycan array binding signal (z-score),[27],-1.24
same,glycan array binding signal (z-score),[28],-0.238
same,glycan array binding signal (z-score),[29],0.808
same,glycan array binding signal (z-score),[30],-1.13
same,glycan array binding signal (z-score),[31],-0.67
same,glycan array binding signal (z-score),[32],-1.11
same,glycan array binding signal (z-score),[33],0.095
same,glycan array binding signal (z-score),[34],1.33
same,glycan array binding signal (z-score),[35],-0.358
same,glycan array binding signal (z-score),[36],-0.678
same,glycan array binding signal (z-score),[37],-0.773

# For convenience, part of the list above:
binder,measurement,setting,value
B1,glycan array binding signal (z-score),[20],-0.243
same,glycan array binding signal (z-score),[21],0.018
same,glycan array binding signal (z-score),[22],0.271
same,glycan array binding signal (z-score),[23],-0.566
same,glycan array binding signal (z-score),[24],-0.153
same,glycan array binding signal (z-score),[25],-0.808
same,glycan array binding signal (z-score),[26],-0.307
same,glycan array binding signal (z-score),[27],-1.24
same,glycan array binding signal (z-score),[28],-0.238
same,glycan array binding signal (z-score),[29],0.808
same,glycan array binding signal (z-score),[30],-1.13
